The record followed here is PMC6203814.

Chains of the proteins cited; added tags and fusions are not shown. Lines headed by an entry give the natural chain unless they say otherwise; changes in a name come on top. Residues count along the entry.
UniProt O60242: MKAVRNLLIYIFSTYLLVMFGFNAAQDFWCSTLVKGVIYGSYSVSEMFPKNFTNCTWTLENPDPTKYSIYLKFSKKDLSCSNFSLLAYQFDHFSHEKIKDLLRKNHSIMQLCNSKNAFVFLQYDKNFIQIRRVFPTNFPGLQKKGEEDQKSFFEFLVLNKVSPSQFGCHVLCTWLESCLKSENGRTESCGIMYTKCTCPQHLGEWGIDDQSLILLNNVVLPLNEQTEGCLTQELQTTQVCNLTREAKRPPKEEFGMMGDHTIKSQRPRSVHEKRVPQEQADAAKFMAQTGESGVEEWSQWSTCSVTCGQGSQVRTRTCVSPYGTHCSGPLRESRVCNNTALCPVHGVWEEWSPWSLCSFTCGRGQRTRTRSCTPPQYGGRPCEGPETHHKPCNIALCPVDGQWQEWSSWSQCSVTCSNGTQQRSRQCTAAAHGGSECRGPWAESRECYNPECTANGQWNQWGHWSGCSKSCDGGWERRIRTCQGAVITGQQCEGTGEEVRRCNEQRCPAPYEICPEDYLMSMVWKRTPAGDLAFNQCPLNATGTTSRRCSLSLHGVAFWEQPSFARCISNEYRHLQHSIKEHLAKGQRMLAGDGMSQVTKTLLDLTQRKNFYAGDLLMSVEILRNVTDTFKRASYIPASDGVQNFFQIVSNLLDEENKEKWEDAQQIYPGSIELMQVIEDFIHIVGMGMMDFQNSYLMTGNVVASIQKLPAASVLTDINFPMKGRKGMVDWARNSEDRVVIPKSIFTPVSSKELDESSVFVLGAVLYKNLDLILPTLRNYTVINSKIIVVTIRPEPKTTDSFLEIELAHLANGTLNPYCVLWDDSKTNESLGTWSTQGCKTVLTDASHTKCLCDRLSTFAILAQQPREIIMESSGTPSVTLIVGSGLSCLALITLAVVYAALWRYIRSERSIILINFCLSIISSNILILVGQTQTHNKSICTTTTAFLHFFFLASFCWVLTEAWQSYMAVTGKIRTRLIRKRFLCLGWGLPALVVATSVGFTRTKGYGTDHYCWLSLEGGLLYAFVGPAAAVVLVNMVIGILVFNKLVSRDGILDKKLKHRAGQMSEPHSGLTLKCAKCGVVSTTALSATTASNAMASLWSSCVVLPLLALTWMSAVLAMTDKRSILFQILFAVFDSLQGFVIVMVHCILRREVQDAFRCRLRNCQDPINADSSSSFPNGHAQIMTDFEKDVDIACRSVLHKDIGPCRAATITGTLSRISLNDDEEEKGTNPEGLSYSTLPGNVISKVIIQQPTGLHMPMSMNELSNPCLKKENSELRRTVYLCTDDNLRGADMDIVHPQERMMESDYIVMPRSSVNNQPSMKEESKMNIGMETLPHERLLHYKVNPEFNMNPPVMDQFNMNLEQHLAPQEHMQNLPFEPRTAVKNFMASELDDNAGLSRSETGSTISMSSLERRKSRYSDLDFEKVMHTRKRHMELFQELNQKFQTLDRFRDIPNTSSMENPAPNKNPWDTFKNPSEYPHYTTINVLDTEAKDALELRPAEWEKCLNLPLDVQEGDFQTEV
UniProt Q8WWQ8, residues 20-2551: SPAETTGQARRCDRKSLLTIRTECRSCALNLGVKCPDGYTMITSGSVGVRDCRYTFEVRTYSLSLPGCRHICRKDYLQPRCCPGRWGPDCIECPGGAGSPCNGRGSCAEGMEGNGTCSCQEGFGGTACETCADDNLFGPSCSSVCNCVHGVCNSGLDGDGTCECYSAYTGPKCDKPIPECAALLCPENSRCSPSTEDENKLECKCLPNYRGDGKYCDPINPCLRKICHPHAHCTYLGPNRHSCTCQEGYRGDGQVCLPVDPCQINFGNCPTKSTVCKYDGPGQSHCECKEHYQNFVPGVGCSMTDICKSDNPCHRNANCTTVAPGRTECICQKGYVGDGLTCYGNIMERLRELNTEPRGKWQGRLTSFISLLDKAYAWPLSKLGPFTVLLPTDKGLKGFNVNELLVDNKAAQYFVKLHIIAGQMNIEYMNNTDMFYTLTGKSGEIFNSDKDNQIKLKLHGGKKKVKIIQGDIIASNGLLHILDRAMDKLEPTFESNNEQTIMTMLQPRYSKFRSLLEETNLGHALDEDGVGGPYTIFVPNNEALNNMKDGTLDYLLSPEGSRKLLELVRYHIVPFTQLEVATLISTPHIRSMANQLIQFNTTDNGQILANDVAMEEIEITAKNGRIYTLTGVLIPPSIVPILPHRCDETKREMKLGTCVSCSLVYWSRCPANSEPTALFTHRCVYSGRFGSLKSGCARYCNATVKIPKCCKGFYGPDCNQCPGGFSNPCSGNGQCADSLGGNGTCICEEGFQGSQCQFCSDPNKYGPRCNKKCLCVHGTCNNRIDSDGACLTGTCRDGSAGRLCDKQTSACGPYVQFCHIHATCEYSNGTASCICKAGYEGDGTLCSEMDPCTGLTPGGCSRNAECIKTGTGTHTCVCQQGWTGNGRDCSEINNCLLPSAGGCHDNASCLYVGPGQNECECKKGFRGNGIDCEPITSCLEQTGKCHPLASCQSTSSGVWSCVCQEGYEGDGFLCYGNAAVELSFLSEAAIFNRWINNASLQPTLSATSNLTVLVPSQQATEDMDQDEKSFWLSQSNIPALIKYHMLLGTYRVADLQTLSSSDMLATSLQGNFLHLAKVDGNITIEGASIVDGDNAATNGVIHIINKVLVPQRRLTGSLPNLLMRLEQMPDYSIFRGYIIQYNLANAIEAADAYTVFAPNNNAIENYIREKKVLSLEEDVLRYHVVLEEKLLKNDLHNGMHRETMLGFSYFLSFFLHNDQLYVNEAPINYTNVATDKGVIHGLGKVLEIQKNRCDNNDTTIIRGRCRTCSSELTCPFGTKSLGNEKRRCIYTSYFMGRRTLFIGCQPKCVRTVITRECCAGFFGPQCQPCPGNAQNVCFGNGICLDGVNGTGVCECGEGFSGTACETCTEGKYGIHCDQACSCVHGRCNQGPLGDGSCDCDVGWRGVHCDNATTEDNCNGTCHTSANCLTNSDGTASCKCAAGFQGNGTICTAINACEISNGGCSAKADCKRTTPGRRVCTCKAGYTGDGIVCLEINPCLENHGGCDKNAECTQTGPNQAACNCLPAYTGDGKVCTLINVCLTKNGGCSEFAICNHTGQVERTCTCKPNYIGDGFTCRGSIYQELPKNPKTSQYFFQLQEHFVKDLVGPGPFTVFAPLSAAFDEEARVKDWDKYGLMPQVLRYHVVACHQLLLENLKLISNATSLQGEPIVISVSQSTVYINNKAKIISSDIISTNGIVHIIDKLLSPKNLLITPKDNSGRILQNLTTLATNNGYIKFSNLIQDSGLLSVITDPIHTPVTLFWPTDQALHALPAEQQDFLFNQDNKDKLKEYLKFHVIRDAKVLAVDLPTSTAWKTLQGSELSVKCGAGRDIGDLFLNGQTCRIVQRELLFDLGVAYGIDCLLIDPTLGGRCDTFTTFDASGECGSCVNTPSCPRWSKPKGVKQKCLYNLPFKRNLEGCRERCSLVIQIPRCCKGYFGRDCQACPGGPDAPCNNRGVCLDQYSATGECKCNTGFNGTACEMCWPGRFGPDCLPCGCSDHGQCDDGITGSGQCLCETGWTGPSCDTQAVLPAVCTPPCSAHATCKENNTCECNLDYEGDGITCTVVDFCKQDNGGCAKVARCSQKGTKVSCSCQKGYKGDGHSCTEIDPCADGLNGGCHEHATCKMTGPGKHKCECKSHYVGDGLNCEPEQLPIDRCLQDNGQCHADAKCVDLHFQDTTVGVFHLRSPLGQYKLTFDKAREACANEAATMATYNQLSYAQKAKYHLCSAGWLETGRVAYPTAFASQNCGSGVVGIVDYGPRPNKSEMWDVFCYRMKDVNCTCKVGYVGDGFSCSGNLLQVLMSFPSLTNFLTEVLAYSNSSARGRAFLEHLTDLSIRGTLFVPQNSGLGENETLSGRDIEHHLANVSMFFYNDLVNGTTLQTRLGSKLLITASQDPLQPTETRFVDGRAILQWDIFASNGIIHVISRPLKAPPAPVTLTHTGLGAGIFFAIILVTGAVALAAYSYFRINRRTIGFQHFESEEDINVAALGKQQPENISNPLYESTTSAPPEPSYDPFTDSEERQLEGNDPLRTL

These are yes or no findings as the source states them, for the method shown. Binding seen in cells or lysates may run through a third protein. For part of these data: Binding calls can cover weak binding; strength is not graded here. For part of these data: Where a sequence is shown, tags or fusion partners need not be part of it.

Assay [1] concerns the target T1, HA-C1qL4^GW (UniProt Q4ZJM9).
T1 sequence (chain, two engineered N-linked glycosylation sites in the C1q domain): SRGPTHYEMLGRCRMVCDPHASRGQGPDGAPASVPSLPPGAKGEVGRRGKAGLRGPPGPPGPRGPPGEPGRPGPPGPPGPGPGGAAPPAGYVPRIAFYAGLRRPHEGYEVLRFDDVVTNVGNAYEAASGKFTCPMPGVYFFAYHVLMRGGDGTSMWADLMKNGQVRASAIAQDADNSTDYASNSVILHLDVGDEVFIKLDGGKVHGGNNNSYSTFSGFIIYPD
Description: co-IP; anti-HA immunoprecipitation of HA-C1qL4 (WT or GW), blot for V5-tagged soluble BAI3 extracellular domain or its fragments.

In assay [2] the target is HA-C1qL4^WT (UniProt Q4ZJM9). Described as above.
Assay [3] has as its target Flag-BAI3^ECD (human) (UniProt O60242). Description: co-IP; HEK293T or C2C12 cells expressing V5-Stabilin-2 and a Flag-BAI3 form, lysed in 150 mM NaCl, 50 mM Tris pH 7.5, 1% Nonidet-P40; 500 μg extract, antibody and Protein-A agarose 90 min, three washes.

Regarding “V5-BAI3^ECD (from UniProt O60242) (domain or fragment)”, the binding result in assay [1] is “no binding”; in assay [2], “binds”.

With “full length V5-Stabilin-2 (from UniProt Q8WWQ8 20-2551) (receptor)”, the binding result in assay [3] was “binds”.
